# Some of the results follow.
# B1: S100A12 (Homo sapiens), P80511 (protein)
# chain: MTKLEEHLEGIVNIFHQYSVRKGHFDTLSKGELKQLLTKELANTIKNIKDKAVIDEIFQGLDANQDEQVDFQEFISLVAIALKAAHYHTHKE
# Key:
# Assay in all cases: glycan array binding signal (z-score within array); higher = stronger binding
# Conditions in all cases: glycan notation: IUPAC condensed, linker removed
# Gal4S(b1-4)GlcNAc = target: Gal4S(b1-4)GlcNAc
# Outline: (§1)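 Glycan array data were curated from 3228 arrays in the Consortium for Functional Glycomics database and kept only where the protein sequence was available. Glycan names were converted to IUPAC-condensed notation, and columns mapping to the same glycan were averaged. The binding signal is a within-array Z-score, averaged across arrays of the same protein sequence at different concentrations or buffers and across linkers. Negative Z-scores can be read as non-binding.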
# Gal4S6S(b1-4)GlcNAc = target: Gal4S6S(b1-4)GlcNAc
# Outline: as §1
# Gal6S(b1-4)Glc = target: Gal6S(b1-4)Glc
# Outline: as §1
# Gal6S(b1-4)Glc6S = target: Gal6S(b1-4)Glc6S
# Outline: as §1
# Gal6S(b1-4)GlcNAc = target: Gal6S(b1-4)GlcNAc
# Outline: as §1
# GalNAc(a1-3)Gal = target: GalNAc(a1-3)Gal
# Outline: as §1
# GalNAc(a1-3)GalNAc = target: GalNAc(a1-3)GalNAc
# Outline: as §1
# [1] = target: GalNAc(b1-3)Gal(a1-4)Gal(b1-4)GlcNAc
# Outline: as §1
# GalNAc(b1-3)GalNAc = target: GalNAc(b1-3)GalNAc
# Outline: as §1
# GalNAc(b1-4)GlcNAc = target: GalNAc(b1-4)GlcNAc
# Outline: as §1
# Glc(a1-4)Glc = target: Glc(a1-4)Glc
# Outline: as §1
# Glc(a1-6)Glc(a1-6)Glc = target: Glc(a1-6)Glc(a1-6)Glc
# Outline: as §1
# Glc(b1-4)Glc = target: Glc(b1-4)Glc
# Outline: as §1
# Glc(b1-6)Glc = target: Glc(b1-6)Glc
# Outline: as §1
# GlcA(b1-3)Gal = target: GlcA(b1-3)Gal
# Outline: as §1
# GlcA(b1-6)Gal = target: GlcA(b1-6)Gal
# Outline: as §1
# [2] = target: GlcNAc(a1-3)Gal(b1-4)GlcNAc
# Outline: as §1
# [3] = target: GlcNAc(a1-6)Gal(b1-4)GlcNAc
# Outline: as §1
# [4] = target: GlcNAc(b1-2)Gal(b1-3)GalNAc
# Outline: as §1
# [5] = target: GlcNAc(b1-2)Gal(b1-3)GlcNAc
# Outline: as §1
# [6] = target: GlcNAc(b1-2)Man(a1-3)[GlcNAc(b1-2)Man(a1-6)]Man(b1-4)GlcNAc(b1-4)GlcNAc
# Outline: as §1
# GlcNAc(b1-3)Gal = target: GlcNAc(b1-3)Gal
# Outline: as §1
# [7] = target: GlcNAc(b1-3)Gal(b1-3)GalNAc
# Outline: as §1
# GlcNAc(b1-3)Gal(b1-4)Glc = target: GlcNAc(b1-3)Gal(b1-4)Glc
# Outline: as §1
# [8] = target: GlcNAc(b1-3)Gal(b1-4)GlcNAc
# Outline: as §1
# [9] = target: GlcNAc(b1-3)Gal(b1-4)GlcNAc(b1-3)Gal(b1-4)GlcNAc
# Outline: as §1
# GlcNAc(b1-3)GalNAc = target: GlcNAc(b1-3)GalNAc
# Outline: as §1
# [10] = target: GlcNAc(b1-3)[GlcNAc(b1-4)][GlcNAc(b1-6)]GlcNAc
# Outline: as §1
# [11] = target: GlcNAc(b1-3)[GlcNAc(b1-6)]Gal(b1-4)GlcNAc
# Outline: as §1
# [12] = target: GlcNAc(b1-3)[GlcNAc(b1-6)]GalNAc
# Outline: as §1
# [13] = target: GlcNAc(b1-3)[GlcNAc(b1-6)]GlcNAc
# Outline: as §1
# [14] = target: GlcNAc(b1-3)[GlcNAc(b1-6)]GlcNAc(b1-4)GlcNAc
# Outline: as §1
# [15] = target: GlcNAc(b1-4)Gal(b1-4)GlcNAc
# Outline: as §1
# [16] = target: GlcNAc(b1-4)GlcNAc(b1-4)GlcNAc
# Outline: as §1
# [17] = target: GlcNAc(b1-4)GlcNAc(b1-4)GlcNAc(b1-4)GlcNAc(b1-4)GlcNAc
# Outline: as §1
# [18] = target: GlcNAc(b1-4)GlcNAc(b1-4)GlcNAc(b1-4)GlcNAc(b1-4)GlcNAc(b1-4)GlcNAc
# Outline: as §1
# [19] = target: GlcNAc(b1-4)[GlcNAc(b1-6)]GalNAc
# Outline: as §1
# [20] = target: GlcNAc(b1-6)Gal(b1-4)GlcNAc
# Outline: as §1
# GlcNAc(b1-6)GalNAc = target: GlcNAc(b1-6)GalNAc
# Outline: as §1
# Kdn(a2-3)Gal(b1-3)GlcNAc = target: Kdn(a2-3)Gal(b1-3)GlcNAc
# Outline: as §1
# Kdn(a2-3)Gal(b1-4)GlcNAc = target: Kdn(a2-3)Gal(b1-4)GlcNAc
# Outline: as §1
# [21] = target: Man(a1-2)Man(a1-2)Man(a1-3)Man
# Outline: as §1
# [22] = target: Man(a1-2)Man(a1-2)Man(a1-3)[Man(a1-2)Man(a1-3)[Man(a1-2)Man(a1-6)]Man(a1-6)]Man(b1-4)GlcNAc(b1-4)GlcNAc
# Outline: as §1
# [23] = target: Man(a1-2)Man(a1-2)Man(a1-3)[Man(a1-2)Man(a1-6)[Man(a1-3)]Man(a1-6)]Man(b1-4)GlcNAc(b1-4)GlcNAc
# Outline: as §1
# [24] = target: Man(a1-2)Man(a1-2)Man(a1-6)[Man(a1-3)]Man
# Outline: as §1
# Man(a1-2)Man(a1-3)Man = target: Man(a1-2)Man(a1-3)Man
# Outline: as §1
# [25] = target: Man(a1-2)Man(a1-3)[Man(a1-2)Man(a1-6)]Man
# Outline: as §1
# [26] = target: Man(a1-2)Man(a1-3)[Man(a1-2)Man(a1-6)]Man(a1-6)[Man(a1-2)Man(a1-2)Man(a1-3)]Man(b1-4)GlcNAc(b1-4)GlcNAc
# Outline: as §1
# [27] = target: Man(a1-2)Man(a1-3)[Man(a1-3)[Man(a1-6)]Man(a1-6)]Man(b1-4)GlcNAc(b1-4)GlcNAc
# Outline: as §1
# [28] = target: Man(a1-2)Man(a1-3)[Man(a1-6)]Man(a1-6)[Man(a1-2)Man(a1-3)]Man(b1-4)GlcNAc(b1-4)GlcNAc
# Outline: as §1
# [29] = target: Man(a1-2)Man(a1-6)[Man(a1-3)]Man(a1-6)[Man(a1-2)Man(a1-2)Man(a1-3)]Man(b1-4)GlcNAc(b1-4)GlcNAc
# Outline: as §1
# Man(a1-3)[Man(a1-6)]Man = target: Man(a1-3)[Man(a1-6)]Man
# Outline: as §1
# [30] = target: Man(a1-3)[Man(a1-6)]Man(a1-6)[Man(a1-2)Man(a1-3)]Man(b1-4)GlcNAc(b1-4)GlcNAc
# Outline: as §1
# [31] = target: Man(a1-3)[Man(a1-6)]Man(a1-6)[Man(a1-3)]Man(b1-4)GlcNAc(b1-4)GlcNAc
# Outline: as §1
# [32] = target: Man(a1-3)[Man(a1-6)]Man(b1-4)GlcNAc(b1-4)GlcNAc
# Outline: as §1
# Man(b1-4)GlcNAc = target: Man(b1-4)GlcNAc
# Outline: as §1
# Neu5Ac(a2-3)Gal = target: Neu5Ac(a2-3)Gal
# Outline: as §1
# [33] = target: Neu5Ac(a2-3)Gal(b1-3)GalNAc
# Outline: as §1
# [34] = target: Neu5Ac(a2-3)Gal(b1-3)GalNAc(b1-3)Gal(a1-4)Gal(b1-4)Glc
# Outline: as §1
binder,measurement,setting,value
B1,glycan array binding signal (z-score),Gal4S(b1-4)GlcNAc,0.456
same,glycan array binding signal (z-score),Gal4S6S(b1-4)GlcNAc,2.91
same,glycan array binding signal (z-score),Gal6S(b1-4)Glc,0.447
same,glycan array binding signal (z-score),Gal6S(b1-4)Glc6S,2.19
same,glycan array binding signal (z-score),Gal6S(b1-4)GlcNAc,0.742
same,glycan array binding signal (z-score),GalNAc(a1-3)Gal,-0.359
same,glycan array binding signal (z-score),GalNAc(a1-3)GalNAc,-0.65
same,glycan array binding signal (z-score),[1],-0.499
same,glycan array binding signal (z-score),GalNAc(b1-3)GalNAc,-0.726
same,glycan array binding signal (z-score),GalNAc(b1-4)GlcNAc,-0.557
same,glycan array binding signal (z-score),Glc(a1-4)Glc,-0.387
same,glycan array binding signal (z-score),Glc(a1-6)Glc(a1-6)Glc,0.4
same,glycan array binding signal (z-score),Glc(b1-4)Glc,0.689
same,glycan array binding signal (z-score),Glc(b1-6)Glc,0.421
same,glycan array binding signal (z-score),GlcA(b1-3)Gal,0.368
same,glycan array binding signal (z-score),GlcA(b1-6)Gal,0.942
same,glycan array binding signal (z-score),[2],-0.594
same,glycan array binding signal (z-score),[3],-0.634
same,glycan array binding signal (z-score),[4],-0.593
same,glycan array binding signal (z-score),[5],-0.286
same,glycan array binding signal (z-score),[6],1.79
same,glycan array binding signal (z-score),GlcNAc(b1-3)Gal,-0.631
same,glycan array binding signal (z-score),[7],-0.414
same,glycan array binding signal (z-score),GlcNAc(b1-3)Gal(b1-4)Glc,-0.58
same,glycan array binding signal (z-score),[8],0.954
same,glycan array binding signal (z-score),[9],-0.29
same,glycan array binding signal (z-score),GlcNAc(b1-3)GalNAc,-0.743
same,glycan array binding signal (z-score),[10],-0.522
same,glycan array binding signal (z-score),[11],-0.74
same,glycan array binding signal (z-score),[12],-0.61
same,glycan array binding signal (z-score),[13],-0.408
same,glycan array binding signal (z-score),[14],-0.525
same,glycan array binding signal (z-score),[15],-0.673
same,glycan array binding signal (z-score),[16],-0.009
same,glycan array binding signal (z-score),[17],0.739
same,glycan array binding signal (z-score),[18],-0.158
same,glycan array binding signal (z-score),[19],-0.827
same,glycan array binding signal (z-score),[20],-0.309
same,glycan array binding signal (z-score),GlcNAc(b1-6)GalNAc,-0.903
same,glycan array binding signal (z-score),Kdn(a2-3)Gal(b1-3)GlcNAc,-0.712
same,glycan array binding signal (z-score),Kdn(a2-3)Gal(b1-4)GlcNAc,-0.365
same,glycan array binding signal (z-score),[21],0.541
same,glycan array binding signal (z-score),[22],-0.337
same,glycan array binding signal (z-score),[23],-0.57
same,glycan array binding signal (z-score),[24],-0.584
same,glycan array binding signal (z-score),Man(a1-2)Man(a1-3)Man,-0.103
same,glycan array binding signal (z-score),[25],-0.312
same,glycan array binding signal (z-score),[26],0.455
same,glycan array binding signal (z-score),[27],-0.302
same,glycan array binding signal (z-score),[28],-0.256
same,glycan array binding signal (z-score),[29],0.054
same,glycan array binding signal (z-score),Man(a1-3)[Man(a1-6)]Man,-0.452
same,glycan array binding signal (z-score),[30],-0.056
same,glycan array binding signal (z-score),[31],-0.044
same,glycan array binding signal (z-score),[32],0.408
same,glycan array binding signal (z-score),Man(b1-4)GlcNAc,-0.475
same,glycan array binding signal (z-score),Neu5Ac(a2-3)Gal,-0.154
same,glycan array binding signal (z-score),[33],-0.381
same,glycan array binding signal (z-score),[34],-0.03

# 3 entries from above, tab-delimited.
binder	measurement	setting	value
B1	glycan array binding signal (z-score)	[27]	-0.302
same	glycan array binding signal (z-score)	[28]	-0.256
same	glycan array binding signal (z-score)	[29]	0.054

# Reference: the supplement of paper PMC8728848
